# Values quoted from earlier work, collected in PMC6161897, “The novel NADPH oxidase 4 selective inhibitor GLX7013114 counteracts human islet cell death in vitro” (PLoS ONE, 2018).
# Details: cited from earlier work
row,Compound,Endogenous redox activity (DPPH)
1,CCOC(=O)c1c(NC(=O)CN2CCN(C(=O)c3ccco3)CC2)sc2c1CCC2 [GLX351322],No
2,O=[N+]([O-])c1cccc(C2Nc3ccc([N+](=O)[O-])cc3C3C=CCC32)c1 (centres unmarked) [Phox-I2],No
